Assay results published in publication PMC7531238.
No constants are given. Whether binding was seen depends on the method and setting. Binding seen in cells or lysates may run through a third protein. Some entries that bind do so weakly or less than the wild type.

Molecular target: T1, phospho TAK1-Thr184/187 (human (endogenous in MDA-MB-231 and T47D)) (UniProt O43318)
T1 sequence (chain, phosphothreonine at 184/187 (phospho TAK1-Thr184/187)): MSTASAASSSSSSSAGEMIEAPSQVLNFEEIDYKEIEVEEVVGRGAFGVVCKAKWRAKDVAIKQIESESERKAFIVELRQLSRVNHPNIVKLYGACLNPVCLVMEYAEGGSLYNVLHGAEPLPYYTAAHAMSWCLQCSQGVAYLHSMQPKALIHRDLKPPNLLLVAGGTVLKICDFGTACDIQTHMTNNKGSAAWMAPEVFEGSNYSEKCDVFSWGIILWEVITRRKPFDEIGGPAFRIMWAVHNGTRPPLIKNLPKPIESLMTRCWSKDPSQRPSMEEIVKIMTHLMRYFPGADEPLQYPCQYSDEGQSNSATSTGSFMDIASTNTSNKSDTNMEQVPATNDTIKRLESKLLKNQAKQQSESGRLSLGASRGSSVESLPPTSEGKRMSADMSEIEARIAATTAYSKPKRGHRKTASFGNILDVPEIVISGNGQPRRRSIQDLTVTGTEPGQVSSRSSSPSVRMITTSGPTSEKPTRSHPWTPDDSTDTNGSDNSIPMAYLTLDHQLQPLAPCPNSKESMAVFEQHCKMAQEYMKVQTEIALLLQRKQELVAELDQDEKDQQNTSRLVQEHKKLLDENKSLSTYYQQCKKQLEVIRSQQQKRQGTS
Assay: co-IP; endogenous proteins in lysates of breast cancer cells (MDA-MB-231, T47D) treated with TLR3 ligand poly(I:C) 10 ug/ml for 24 h, with or without MyD88 inhibitor ST2825 (1 uM, added 4 h before); non-denaturing lysis buffer (20 mM Tris-HCl, 137 mM NaCl, 1% Triton X-100, 2 mM EDTA); 1 ug antibody and Dynabeads overnight at 4 C; Western blotting

binding: binds
B1: TGF-beta-activated kinase 1 (TAB1) (protein, UniProt Q15750 1-504)
chain: MAAQRRSLLQSEQQPSWTDDLPLCHLSGVGSASNRSYSADGKGTESHPPEDSWLKFRSENNCFLYGVFNGYDGNRVTNFVAQRLSAELLLGQLNAEHAEADVRRVLLQAFDVVERSFLESIDDALAEKASLQSQLPEGVPQHQLPPQYQKILERLKTLEREISGGAMAVVAVLLNNKLYVANVGTNRALLCKSTVDGLQVTQLNVDHTTENEDELFRLSQLGLDAGKIKQVGIICGQESTRRIGDYKVKYGYTDIDLLSAAKSKPIIAEPEIHGAQPLDGVTGFLVLMSEGLYKALEAAHGPGQANQEIAAMIDTEFAKQTSLDAVAQAVVDRVKRIHSDTFASGGERARFCPRHEDMTLLVRNFGYPLGEMSQPTPSPAPAAGGRVYPVSVPYSSAQSTSKTSVTLSLVMPSQGQMVNGAHSASTLDEATPTLTNQSPTLTLQSTNTHTQSSSSSSDGGLFRSRPAHSLPPGEDGRVEPYVDFAEFYRLWSVDHGEQSVVTAP
